PubChem BioAssay AID1259424 – University of Nebraska Medical Center, 2018
The deposit covers about 14,000 reagents; shown is a random part of them. 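Higher correlation or smaller distance means closer resemblance to KSR1 loss; control wells, including KSR1 knockdowns, recur on many plates.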 Further read-outs or replicates are left out here. Not stated in the record: the time to read-out.

Screen: 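Find knockdowns that reproduce the expression shifts seen after KSR1 loss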 (primary screen)
System: human HCT116 colon cancer cells
Reagent: siRNA pool against human genes, 50 nM
Detection: 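Log2 levels of six mRNAs (branched-DNA multiplex), adjusted by two reference genes and the non-targeting median, then scored against the average KSR1 knockdown pattern as Pearson r and euclidean distance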
Direction: mean correlation with KSR1 profile: higher = expression change more like KSR1 knockdown; mean distance from KSR1 profile: higher = expression change less like KSR1 knockdown

{"Gene": "ELL2 (GeneID 22936)", "mean correlation with KSR1 profile": -0.19, "mean distance from KSR1 profile": 1.64}
{"Gene": "FASLG (GeneID 356)", "mean correlation with KSR1 profile": 0.182, "mean distance from KSR1 profile": 2.28}
{"Gene": "SUPT6H (GeneID 6830)", "mean correlation with KSR1 profile": -0.541, "mean distance from KSR1 profile": 4.98}
{"Gene": "ATP4B (GeneID 496)", "mean correlation with KSR1 profile": -0.253, "mean distance from KSR1 profile": 2.23}
{"Gene": "MGAT5 (GeneID 4249)", "mean correlation with KSR1 profile": -0.112, "mean distance from KSR1 profile": 1.62}
{"Gene": "RAB10 (GeneID 10890)", "mean correlation with KSR1 profile": -0.714, "mean distance from KSR1 profile": 2.18}
{"Gene": "LTBP4 (GeneID 8425)", "mean correlation with KSR1 profile": 0.53, "mean distance from KSR1 profile": 2.49}
{"Gene": "DOCK10 (GeneID 55619)", "mean correlation with KSR1 profile": -0.34, "mean distance from KSR1 profile": 2.2}
{"Gene": "DOCK9 (GeneID 23348)", "mean correlation with KSR1 profile": 0.345, "mean distance from KSR1 profile": 1.2}
{"Gene": "SSRP1 (GeneID 6749)", "mean correlation with KSR1 profile": 0.377, "mean distance from KSR1 profile": 2.12}
{"Gene": "PCDH8 (GeneID 5100)", "mean correlation with KSR1 profile": 0.382, "mean distance from KSR1 profile": 2.15}
{"Gene": "MLLT10 (GeneID 8028)", "mean correlation with KSR1 profile": -0.286, "mean distance from KSR1 profile": 1.71}
{"Gene": "SUSD1 (GeneID 64420)", "mean correlation with KSR1 profile": -0.575, "mean distance from KSR1 profile": 1.43}
{"Gene": "NOX1 (GeneID 27035)", "mean correlation with KSR1 profile": -0.029, "mean distance from KSR1 profile": 2.99}
{"Gene": "CPA6 (GeneID 57094)", "mean correlation with KSR1 profile": -0.0596, "mean distance from KSR1 profile": 3.02}
{"Gene": "VSX1 (GeneID 30813)", "mean correlation with KSR1 profile": -0.094, "mean distance from KSR1 profile": 2.37}
{"Gene": "GMPPB (GeneID 29925)", "mean correlation with KSR1 profile": -0.516, "mean distance from KSR1 profile": 2.8}
{"Gene": "CACNB2 (GeneID 783)", "mean correlation with KSR1 profile": 0.281, "mean distance from KSR1 profile": 1.92}
{"Gene": "STIM2 (GeneID 57620)", "mean correlation with KSR1 profile": -0.451, "mean distance from KSR1 profile": 1.65}
{"Gene": "EP300 (GeneID 2033)", "mean correlation with KSR1 profile": -0.539, "mean distance from KSR1 profile": 3.4}
{"Gene": "CNOT11 (GeneID 55571)", "mean correlation with KSR1 profile": -0.321, "mean distance from KSR1 profile": 2.02}
{"Gene": "XRN2 (GeneID 22803)", "mean correlation with KSR1 profile": -0.371, "mean distance from KSR1 profile": 2.54}
{"Gene": "DNAJC11 (GeneID 55735)", "mean correlation with KSR1 profile": 0.372, "mean distance from KSR1 profile": 1.43}
{"Gene": "DOK4 (GeneID 55715)", "mean correlation with KSR1 profile": -0.0348, "mean distance from KSR1 profile": 1.42}
{"Gene": "SLFN12 (GeneID 55106)", "mean correlation with KSR1 profile": -0.243, "mean distance from KSR1 profile": 3.33}
{"Gene": "ATXN2 (GeneID 6311)", "mean correlation with KSR1 profile": 0.205, "mean distance from KSR1 profile": 2.31}
{"Gene": "NPLOC4 (GeneID 55666)", "mean correlation with KSR1 profile": -0.713, "mean distance from KSR1 profile": 2.17}
{"Gene": "MANBA (GeneID 4126)", "mean correlation with KSR1 profile": 0.407, "mean distance from KSR1 profile": 2.96}
{"Gene": "SPTLC1 (GeneID 10558)", "mean correlation with KSR1 profile": -0.208, "mean distance from KSR1 profile": 3.8}
{"Gene": "SLCO1C1 (GeneID 53919)", "mean correlation with KSR1 profile": -0.628, "mean distance from KSR1 profile": 7.38}
{"Gene": "BARX2 (GeneID 8538)", "mean correlation with KSR1 profile": -0.501, "mean distance from KSR1 profile": 1.57}
{"Gene": "MDN1 (GeneID 23195)", "mean correlation with KSR1 profile": -0.214, "mean distance from KSR1 profile": 1.69}
{"Gene": "BMX (GeneID 660)", "mean correlation with KSR1 profile": 0.739, "mean distance from KSR1 profile": 2.24}
{"Gene": "FILIP1 (GeneID 27145)", "mean correlation with KSR1 profile": 0.0914, "mean distance from KSR1 profile": 1.53}
{"Gene": "USP22 (GeneID 23326)", "mean correlation with KSR1 profile": -0.0823, "mean distance from KSR1 profile": 2.38}
{"Gene": "TADA2A (GeneID 6871)", "mean correlation with KSR1 profile": 0.656, "mean distance from KSR1 profile": 2.63}

Sorted by “mean distance from KSR1 profile” (ascending): some entries from above.
{"Gene": "SUSD1 (GeneID 64420)", "mean correlation with KSR1 profile": -0.575, "mean distance from KSR1 profile": 1.43}
{"Gene": "NOX1 (GeneID 27035)", "mean correlation with KSR1 profile": -0.029, "mean distance from KSR1 profile": 2.99}
{"Gene": "CPA6 (GeneID 57094)", "mean correlation with KSR1 profile": -0.0596, "mean distance from KSR1 profile": 3.02}
